# PubChem BioAssay AID2417 (National Center for Advancing Translational Sciences (NCATS), 2010)
# The campaign covered roughly 140,000 compounds. About 4,300 (3.1%) were called active. This list was built around the results that the source calls inconclusive (neither active nor inactive); the mix of calls is not that of the screen.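 The calls were made as follows: active = readout at or below -70, meaning at least 70% loss of cells showing the perinucleolar compartment, a nuclear body marking cancer cells; inconclusive = readout between -30 and a set limit; inactive = the rest.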
# Assay: High Content Assay for Compounds that inhibit the Assembly of the Perinucleolar Compartment;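 also: plate controls were DMSO wells for no effect and camptothecin positive control wells for full effect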
# Conditions: PC3M PTB-GFP, PNC prevalence imaging, 16 h; at 10 µM; stronger effect = lower value
# How it was run: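 Compounds are pinned in duplicate onto adhered PC3M cells stably expressing GFP-tagged PTB and incubated 16 h at 37 C. Cells are then fixed, nuclei stained with Hoechst, and PNC-positive cells counted.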
row,Compound,"activity change (PNC), negative = inhibition"
1,CCOC(=O)c1c2n(c3ccc(O)cc13)CCCCC2,inconclusive: -59.4%
2,Cc1ccc(N(C(=O)c2ccc(CN3CCOCC3)o2)C(C(=O)NCCC(C)C)c2cccs2)c(C)c1 (stereo unspecified),inactive: 4.19%
3,CCCc1cc(C(=O)N2CCN(C(c3ccccc3)c3ccccc3)CC2)no1,inconclusive: -39.7%
4,O=C(c1ccccc1)N1CCN(CC#CC2(O)CCCCC2)CC1,inconclusive: -53.8%
5,CCc1nnc(NS(=O)(=O)c2ccc(NC(=S)NC(=O)c3ccc(Br)cc3)cc2)s1,inactive: -4.96%
6,COc1cc(OC)c(NS(=O)(=O)c2cc(C(=O)OC(C)C(=O)NC3CC3)c(Cl)cc2Cl)cc1Cl (stereo unspecified),inconclusive: -38.7%
7,C=C(C)C1CC=C(C)/C(=N\NC(=O)CNc2cccc3ccccc23)C1 (stereo unspecified),inactive: -2.81%
8,O=C(CSc1ncnc2sc3c(c12)CCCC3)c1ccco1,inconclusive: -34%
9,COc1ccc(OC)c(Nc2nc(N)nc(CSc3nnc(N)s3)n2)c1,inconclusive: -51%
10,Cc1ccc2c(Cl)c(C(=O)Nc3ccc4c(c3)OCO4)sc2c1,inconclusive: -43.4%
11,COc1ccc(Cl)c(N2CCN(CCCNC(=O)Nc3ccc(C)cc3)CC2)c1,inconclusive: -48.9%
12,COCCCNCCCOc1ccc(Cl)cc1C(C)(C)C,inactive: 5.98%
13,COc1cc(C(=S)N2CCOCC2)ccc1OS(=O)(=O)c1ccccc1[N+](=O)[O-],inactive: 25.3%
14,CCOC(=O)C1=C(C)N(c2ccccc2)C(=O)C1CC(=O)O (stereo unspecified),inconclusive: -56.4%
15,O=S(=O)(NCc1cccnc1)c1cccs1,inconclusive: -41.8%
16,O=C(Cn1c(=O)n(CC2CCCO2)c(=O)c2ccccc21)c1ccc(Cl)c(Cl)c1 (stereo unspecified),inconclusive: -52.1%
17,Cc1cnc(Nc2nc3ccccc3o2)nc1C(=O)Nc1cccc(C(F)(F)F)c1,inconclusive: -61.5%
18,Cc1sc2nc(CSCC(=O)Nc3ccccc3C#N)[nH]c(=O)c2c1C,inactive: 5.42%
19,Nn1c(-c2ccco2)n[nH]c1=S,inactive: -24.5%
20,CCCCn1c(CCC)nc([N+](=O)[O-])c1Sc1ccc(Cl)cn1,inconclusive: -40.8%
21,CN(C(=O)CSc1nc(N)nn1-c1ccccc1)c1ccccc1,inconclusive: -35.1%
22,COc1ccc(-n2c(Cc3cccn3C)nnc2SCC(=O)Nc2cccc(F)c2)cc1,inconclusive: -43.8%
23,O=C(N/N=C/c1ccccc1O)c1cccc(C(F)(F)F)c1,active: -93.9%

row,Compound,"activity change (PNC), negative = inhibition"
1,O=C(COc1ccccc1)NCC(=O)N/N=C/C=C/c1ccccc1,inconclusive: -40.7%
2,CCCNC(=O)C1CN(S(=O)(=O)c2ccccc2)CCN1S(=O)(=O)c1ccccc1 (stereo unspecified),inconclusive: -52.1%
3,COc1ccc(S(=O)(=O)N2CCOCC2)cc1NC(=O)c1ccccc1-c1ccc(C(F)(F)F)cc1,inactive: -4.02%
4,c1ccc2c(c1)CCN(Cc1nnnn1Cc1ccc3c(c1)OCO3)C2,inconclusive: -57.2%
5,c1ccc(-c2cc(-c3nc4ccccc4[nH]3)c3ccccc3n2)cc1,inconclusive: -59.7%
6,Cc1ccc(C(=O)c2c(NC(=O)c3ccncc3)sc3c2CCCC3)cc1,active: -86.2%
7,CC(O)C(=O)N/N=C/c1cccc(Cl)c1Cl (stereo unspecified),inconclusive: -72.3%
8,COCCNC(=O)/C(C#N)=C/c1cccc(/C=C(\C#N)C(=O)NCCOC)c1,inconclusive: -53.4%
9,O=C(CSc1nnc(Cc2cccs2)n1C1CCCCC1)N1CCCc2ccccc21,inconclusive: -37.2%
10,O=C(Nc1cccc(NC(=O)c2ccc(-c3ccc(Br)cc3)o2)c1)c1ccco1,inconclusive: -46.2%
11,O=S(=O)(c1ccccc1)c1nc(-c2ccco2)oc1NCCCN1CCOCC1,inactive: -4.14%
12,Cc1cc(-c2ccccc2)nc(N2CCC(C(=O)NC34CC5CC(CC(C5)C3)C4)CC2)n1,inconclusive: -37.5%
13,COC(=O)c1c(NC(=O)C2CC=CCC2C(=O)O)sc(C)c1C (stereo unspecified),inconclusive: -69.5%
14,COC(=O)c1ccc(N=NNc2cccc(Br)c2)cc1,inactive: 92.7%
15,N#Cc1cc2c(nc1SCC(=O)Nc1sc3c(c1C#N)CCC3)CCCCC2,inconclusive: -70.4%
16,COc1cccc(C(=O)Nc2nnc(-c3cccs3)s2)c1,inactive: 23.8%
17,c1ccc(OCCSc2nnnn2-c2ccccc2)cc1,inactive: 8.76%
18,CC(/C=N/O)Cc1ccc2c(c1)OCO2 (stereo unspecified),inconclusive: -36.2%
19,COc1cccc(Nc2ncnc3c2cnn3-c2cccc(C)c2)c1,inactive: 9.99%
20,CCS(=O)(=O)NC(C)C(c1cccs1)N1CCN(c2ccc(F)cc2)CC1 (stereo unspecified),inconclusive: -30.9%
21,Cc1cc(/C=C(/C#N)c2cccc(Cl)c2)c(C)n1C,inconclusive: -51.9%
22,CC(C)(C)NC(=O)c1cccc(NC(=O)Cc2ccc(Br)cc2)c1,inactive: -14.3%
23,CC(C)Oc1cccc(C(=O)NC(=S)Nc2ccc(Cl)c(C(=O)O)c2)c1,inactive: -1.98%

row,Compound,"activity change (PNC), negative = inhibition"
1,O=C(CCN1C(=O)c2ccccc2C1=O)Nc1sc2c(c1C(=O)NCc1ccco1)CCCC2,active: -114%
2,CC(C)CCNC(=O)Cn1cc2c(n1)CCCCC2,inactive: 23.6%
3,COc1cc(C(=O)Nc2nc(-c3cc(C)ccc3C)c(C)s2)ccc1OCC(=O)Nc1ccc(F)cc1,inactive: 25.6%
4,NCC(O)COc1ccc2c(c1)OCO2 (stereo unspecified),inconclusive: -35.9%
5,CN(Cc1ccccc1)C(=O)COC(=O)c1ccc2c(c1)OCO2,inactive: -3.08%
6,Cc1ccc(S(=O)(=O)NCCc2ccncc2)cc1,inactive: -26.4%
7,O=S(=O)(c1ccc(S(=O)(=O)N(Cc2ccc(F)cc2)C2CCCC2)cc1)N1CCCC1,inconclusive: -39.6%
8,Cc1ccc(N(C(C)C(=O)Nc2ccccc2C(=O)N2CCOCC2)S(C)(=O)=O)cc1C (stereo unspecified),inconclusive: -38.9%
9,O=C(CSc1nnc(CNc2ccccc2)o1)N1CCc2ccccc21,inconclusive: -30.6%
10,CC(C)(C)NC(=O)Cn1nnnc1-c1nonc1N,inconclusive: -52.6%
11,CCOC(=O)C1CCCN(Cc2cc(Br)c(OC)cc2OC)C1 (stereo unspecified),inconclusive: -66.1%
12,COc1ccc(C2(O)CCN(C(=O)NC3CCCCC3)CC2)cc1,inconclusive: -43.4%
13,CC(=O)N(c1ccccc1)c1nc(/C=C/C(=O)Nc2c(C)cc(C)cc2C)cs1,inactive: 19.2%
14,CCOc1ccc(-c2cc(CCCC(=O)Nc3cccc(OC)c3)no2)cc1,inconclusive: -49.5%
15,CCCC1=C(C(=O)OCC)C(c2ccc(OC)c(C)c2OC)C(C#N)=C(N)O1 (stereo unspecified),inconclusive: -54.6%
16,COc1cccc(NC(=O)c2cnsn2)c1,inconclusive: -53.5%
17,COc1ccc(CCNC(=O)C2CC2)cc1OC,inconclusive: -44.7%
18,N#Cc1nc(COc2ccc(Cl)cc2)oc1N1CCCCCC1,inconclusive: -54.8%
19,C=CCn1c(N)c(C(=O)Nc2ccccc2OC)sc1=S,inconclusive: -48%
20,CN(C)CCN(Cc1ccccc1)c1ccnc(N(C)C)c1C#N,inconclusive: -40.8%
21,Cn1cnc([N+](=O)[O-])c1Sc1ccccc1,inconclusive: -31.2%
22,Cc1ccc(N=C2SCCCN2C(=O)c2ccco2)cc1Cl,inconclusive: -34.4%
23,COc1cccc(-c2nnc(NC(=O)c3ccc(S(=O)(=O)N4CCOCC4)cc3)o2)c1,inactive: 8.99%

# 6 entries already listed, sorted by formula weight, falling:
row,Compound,"activity change (PNC), negative = inhibition"
6,COc1cc(OC)c(NS(=O)(=O)c2cc(C(=O)OC(C)C(=O)NC3CC3)c(Cl)cc2Cl)cc1Cl (stereo unspecified),inconclusive: -38.7%
23,CC(C)Oc1cccc(C(=O)NC(=S)Nc2ccc(Cl)c(C(=O)O)c2)c1,inactive: -1.98%
10,Cc1ccc2c(Cl)c(C(=O)Nc3ccc4c(c3)OCO4)sc2c1,inconclusive: -43.4%
19,C=CCn1c(N)c(C(=O)Nc2ccccc2OC)sc1=S,inconclusive: -48%
16,COc1cccc(C(=O)Nc2nnc(-c3cccs3)s2)c1,inactive: 23.8%
4,NCC(O)COc1ccc2c(c1)OCO2 (stereo unspecified),inconclusive: -35.9%

# The results go on:

row,Compound,"activity change (PNC), negative = inhibition"
1,COc1cc(C2/C(=C(/O)c3ccc(F)cc3)C(=O)C(=O)N2CCCC(=O)O)ccc1O (stereo unspecified),inactive: 57.4%
2,CN(C)c1ccc(CN(C(=O)COc2ccc(F)cc2)C2CCS(=O)(=O)C2)cc1 (stereo unspecified),inactive: 15.3%
3,CCCC(=O)Nc1ccc(NC(=O)Cc2ccccc2)cn1,inactive: -11.7%
4,Cc1ccc(-n2sc3ccccc3c2=O)cc1S(=O)(=O)N1CCCCC1,inconclusive: -34.1%
5,Cc1cc(C(=O)NCC(C)C)c2ccccc2n1,inconclusive: -41.6%
6,CCN1C(=S)SC(=O)C1=C1C=C(C)OC(C)=C1,inactive: 28.5%
7,CC1(C)COC(c2cccn2Cc2ccccc2Cl)=N1,inconclusive: -34.6%
8,Cc1nn(-c2ccccc2)c2sc(C(=O)NC3CCCCC3)cc12,inconclusive: -38.2%
9,Cn1nc(CC(=O)NC2CCCCCCCCCCC2)c2ccccc2c1=O,inactive: 56.4%
10,CC(=O)OCC(=O)NCc1ccc2c(c1)OCO2,inconclusive: -45%
11,COCCNc1nc(C(C)(C)C)nc2c1nnn2Cc1ccccc1Cl,active: -102%
12,CCCCNS(=O)(=O)c1ccc(OC)c2ncccc12,inconclusive: -78%
13,COc1ccccc1-c1noc(CCC(=O)Nc2ccccc2Cl)n1,inconclusive: -44.4%
14,CCCN1C(=O)c2cc(C(=O)NCc3cccs3)ccc2C1O (stereo unspecified),inactive: -12.5%
15,CCOCCOC(=O)c1[nH]c2c(c1C)C(=O)CC(c1ccc(N(C)C)cc1)C2 (stereo unspecified),inactive: -25.3%
16,Cc1ccc(NC(=O)C2CCCN(S(=O)(=O)c3cnc[nH]3)C2)cc1C (stereo unspecified),inconclusive: -32.1%
17,O=C1C2CC=C(Cl)CC2C(=O)N1CN(Cc1ccco1)CN1C(=O)C2CC=C(Cl)CC2C1=O (stereo unspecified),active: -96.3%
18,C=CCn1cc(C(=O)OC)c(=O)c2cc(S(=O)(=O)N3CCC(C)CC3)ccc21,inconclusive: -44.8%
19,O=C(Nc1cccc(S(=O)(=O)N2CCCC2)c1)c1ccc2c(=O)n3c(nc2c1)CCCCC3,inconclusive: -57.9%
20,Cn1c(NCc2cccc(Br)c2)nc2ccccc21,inconclusive: -34.2%
21,C1CNCCNCCCNCCNC1,active: -115%
22,C1CCC2(CC1)C1=C(CCCC1)Nc1nnnn12,inconclusive: -59.3%
